Source: article PMC4450086
These are yes or no findings as the source states them, for the method shown. In cells and extracts the contact can be indirect. Some binding calls cover weakened binding; strength is not graded here.

Amino acid sequences for entries named in this document (tags omitted). Residues count along the entry.
UniProt P08581, residues 25-1390: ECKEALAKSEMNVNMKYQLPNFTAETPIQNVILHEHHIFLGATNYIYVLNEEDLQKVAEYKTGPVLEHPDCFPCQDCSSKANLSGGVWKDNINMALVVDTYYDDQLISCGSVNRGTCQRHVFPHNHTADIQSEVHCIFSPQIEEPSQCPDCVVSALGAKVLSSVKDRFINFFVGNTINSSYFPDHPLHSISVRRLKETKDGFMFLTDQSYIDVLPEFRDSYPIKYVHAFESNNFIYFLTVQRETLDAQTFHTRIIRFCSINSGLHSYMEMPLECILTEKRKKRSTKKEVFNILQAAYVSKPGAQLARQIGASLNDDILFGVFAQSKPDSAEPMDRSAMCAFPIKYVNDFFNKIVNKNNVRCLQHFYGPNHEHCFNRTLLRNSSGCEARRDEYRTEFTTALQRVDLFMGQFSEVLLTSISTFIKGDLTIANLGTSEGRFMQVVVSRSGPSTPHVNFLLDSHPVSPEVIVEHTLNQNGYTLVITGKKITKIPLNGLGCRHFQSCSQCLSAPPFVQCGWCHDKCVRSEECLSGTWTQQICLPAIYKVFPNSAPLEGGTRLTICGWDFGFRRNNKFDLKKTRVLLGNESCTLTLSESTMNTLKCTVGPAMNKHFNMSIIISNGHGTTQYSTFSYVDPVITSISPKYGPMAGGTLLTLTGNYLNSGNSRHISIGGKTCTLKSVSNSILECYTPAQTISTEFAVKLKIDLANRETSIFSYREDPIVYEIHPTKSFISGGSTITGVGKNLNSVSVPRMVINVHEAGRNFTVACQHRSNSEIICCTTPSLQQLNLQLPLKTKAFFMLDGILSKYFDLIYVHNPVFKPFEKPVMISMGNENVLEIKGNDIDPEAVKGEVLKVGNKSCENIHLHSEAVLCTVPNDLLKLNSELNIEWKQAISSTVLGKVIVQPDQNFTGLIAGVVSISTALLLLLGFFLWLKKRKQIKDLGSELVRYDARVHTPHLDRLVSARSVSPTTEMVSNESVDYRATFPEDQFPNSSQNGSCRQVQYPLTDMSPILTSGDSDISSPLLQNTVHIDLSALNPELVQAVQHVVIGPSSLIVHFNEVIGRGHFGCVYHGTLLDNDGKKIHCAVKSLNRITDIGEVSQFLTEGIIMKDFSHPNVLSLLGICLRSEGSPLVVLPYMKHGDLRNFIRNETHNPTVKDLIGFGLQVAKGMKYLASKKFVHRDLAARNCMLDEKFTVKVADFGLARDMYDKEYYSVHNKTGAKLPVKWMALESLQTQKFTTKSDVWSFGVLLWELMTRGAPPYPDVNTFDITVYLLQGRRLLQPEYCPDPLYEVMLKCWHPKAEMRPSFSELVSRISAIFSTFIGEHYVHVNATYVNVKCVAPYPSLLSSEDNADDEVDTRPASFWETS
UniProt P16056, residues 25-1379: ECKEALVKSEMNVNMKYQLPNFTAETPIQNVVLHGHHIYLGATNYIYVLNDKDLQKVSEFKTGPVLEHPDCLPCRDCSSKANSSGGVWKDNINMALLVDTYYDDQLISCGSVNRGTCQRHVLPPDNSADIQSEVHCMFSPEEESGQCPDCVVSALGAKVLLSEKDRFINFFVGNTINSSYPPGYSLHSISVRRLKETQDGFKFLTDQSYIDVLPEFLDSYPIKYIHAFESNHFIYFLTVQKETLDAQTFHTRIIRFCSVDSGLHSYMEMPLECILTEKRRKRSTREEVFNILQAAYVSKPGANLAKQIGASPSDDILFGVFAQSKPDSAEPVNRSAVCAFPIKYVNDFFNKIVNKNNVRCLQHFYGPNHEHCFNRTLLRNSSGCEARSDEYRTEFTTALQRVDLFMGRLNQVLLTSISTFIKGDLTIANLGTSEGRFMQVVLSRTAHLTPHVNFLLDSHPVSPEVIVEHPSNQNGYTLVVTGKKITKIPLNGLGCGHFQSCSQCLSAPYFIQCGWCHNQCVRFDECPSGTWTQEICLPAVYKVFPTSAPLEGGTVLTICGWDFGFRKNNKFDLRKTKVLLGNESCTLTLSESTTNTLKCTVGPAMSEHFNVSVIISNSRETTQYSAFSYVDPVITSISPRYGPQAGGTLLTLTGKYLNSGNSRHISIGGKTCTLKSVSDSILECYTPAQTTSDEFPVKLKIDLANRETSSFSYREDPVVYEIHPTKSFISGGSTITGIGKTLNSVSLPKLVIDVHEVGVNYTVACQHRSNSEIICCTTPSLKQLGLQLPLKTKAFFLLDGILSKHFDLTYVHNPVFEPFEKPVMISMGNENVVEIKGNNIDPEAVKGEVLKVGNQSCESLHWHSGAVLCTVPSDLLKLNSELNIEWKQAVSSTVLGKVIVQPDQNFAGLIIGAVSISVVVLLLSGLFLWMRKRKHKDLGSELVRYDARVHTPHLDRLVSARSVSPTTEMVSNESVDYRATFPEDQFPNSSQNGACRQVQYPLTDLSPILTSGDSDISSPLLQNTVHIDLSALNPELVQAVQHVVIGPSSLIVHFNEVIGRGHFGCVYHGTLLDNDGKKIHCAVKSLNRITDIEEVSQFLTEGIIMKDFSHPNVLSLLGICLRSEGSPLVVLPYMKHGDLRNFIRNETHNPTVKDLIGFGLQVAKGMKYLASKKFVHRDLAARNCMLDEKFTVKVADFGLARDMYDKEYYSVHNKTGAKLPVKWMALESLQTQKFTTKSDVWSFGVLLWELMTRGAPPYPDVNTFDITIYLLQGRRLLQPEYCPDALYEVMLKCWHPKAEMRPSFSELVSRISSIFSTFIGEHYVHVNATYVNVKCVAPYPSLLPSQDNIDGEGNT
UniProt P16070, residues 21-742: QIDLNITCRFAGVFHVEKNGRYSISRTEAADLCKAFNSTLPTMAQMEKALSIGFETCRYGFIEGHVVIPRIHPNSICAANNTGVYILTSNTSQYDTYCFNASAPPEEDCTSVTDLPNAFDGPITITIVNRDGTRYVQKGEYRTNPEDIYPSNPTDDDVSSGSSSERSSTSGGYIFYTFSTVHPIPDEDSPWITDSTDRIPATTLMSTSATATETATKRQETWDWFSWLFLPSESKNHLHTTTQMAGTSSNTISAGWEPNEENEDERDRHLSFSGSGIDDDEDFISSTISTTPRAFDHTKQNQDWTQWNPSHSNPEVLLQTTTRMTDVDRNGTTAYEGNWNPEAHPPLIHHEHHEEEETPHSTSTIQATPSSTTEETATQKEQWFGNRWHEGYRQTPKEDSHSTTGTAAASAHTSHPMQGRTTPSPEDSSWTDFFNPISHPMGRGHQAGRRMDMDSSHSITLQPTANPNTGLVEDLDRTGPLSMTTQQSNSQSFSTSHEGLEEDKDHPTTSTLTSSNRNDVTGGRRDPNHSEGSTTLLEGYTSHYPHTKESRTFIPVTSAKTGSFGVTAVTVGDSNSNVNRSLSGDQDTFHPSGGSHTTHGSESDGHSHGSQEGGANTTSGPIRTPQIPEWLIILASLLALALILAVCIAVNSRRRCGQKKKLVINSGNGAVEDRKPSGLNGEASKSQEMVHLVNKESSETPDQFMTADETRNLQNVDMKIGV
UniProt B5Z6S0: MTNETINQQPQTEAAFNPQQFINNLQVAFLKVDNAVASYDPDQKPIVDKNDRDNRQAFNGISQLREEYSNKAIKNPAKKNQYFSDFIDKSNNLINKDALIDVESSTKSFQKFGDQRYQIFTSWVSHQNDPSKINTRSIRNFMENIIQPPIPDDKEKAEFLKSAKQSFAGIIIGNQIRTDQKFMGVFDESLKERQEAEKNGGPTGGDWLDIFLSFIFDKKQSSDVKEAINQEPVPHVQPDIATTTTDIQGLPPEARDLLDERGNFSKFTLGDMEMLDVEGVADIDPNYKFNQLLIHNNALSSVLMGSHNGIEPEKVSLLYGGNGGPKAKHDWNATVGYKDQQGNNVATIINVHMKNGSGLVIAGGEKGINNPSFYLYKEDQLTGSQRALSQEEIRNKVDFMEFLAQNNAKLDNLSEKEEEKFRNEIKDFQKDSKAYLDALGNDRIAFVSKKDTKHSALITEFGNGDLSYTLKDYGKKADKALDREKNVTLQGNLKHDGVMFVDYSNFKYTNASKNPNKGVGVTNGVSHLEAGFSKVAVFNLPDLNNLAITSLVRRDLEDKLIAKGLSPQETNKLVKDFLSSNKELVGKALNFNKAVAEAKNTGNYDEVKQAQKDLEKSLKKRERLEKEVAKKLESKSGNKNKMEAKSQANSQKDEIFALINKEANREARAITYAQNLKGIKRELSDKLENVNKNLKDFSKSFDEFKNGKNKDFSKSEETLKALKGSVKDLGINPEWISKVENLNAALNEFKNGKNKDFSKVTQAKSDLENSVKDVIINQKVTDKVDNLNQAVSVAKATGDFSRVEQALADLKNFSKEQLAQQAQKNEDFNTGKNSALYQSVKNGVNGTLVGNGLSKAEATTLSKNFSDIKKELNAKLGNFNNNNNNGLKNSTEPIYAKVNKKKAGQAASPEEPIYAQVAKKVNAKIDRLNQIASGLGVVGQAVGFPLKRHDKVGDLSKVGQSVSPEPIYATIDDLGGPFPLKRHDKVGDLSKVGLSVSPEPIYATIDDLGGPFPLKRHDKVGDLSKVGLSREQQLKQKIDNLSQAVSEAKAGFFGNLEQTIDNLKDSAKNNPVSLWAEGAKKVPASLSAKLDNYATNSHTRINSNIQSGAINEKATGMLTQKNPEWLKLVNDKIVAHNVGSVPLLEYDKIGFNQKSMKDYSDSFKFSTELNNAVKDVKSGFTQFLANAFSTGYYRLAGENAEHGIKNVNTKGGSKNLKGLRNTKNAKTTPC

Tests used:
[1] = target: tyrosine kinase c-Met receptor (human) (human (endogenous in hFGOs)) (UniProt P08581); test: co-IP; lysates (M-PER) of hFGOs infected with H. pylori G27 for 24 h; anti-c-Met antibody 1:50 overnight at 4 C, Protein A/G Plus agarose; Western blot
[2] = target: tyrosine kinase c-Met receptor (human) (human (endogenous in hFGOs)) (UniProt P08581); test: co-IP; lysates of hFGOs pre-treated with CD44v6 neutralizing antibody (100 ng/ml, 1 hour) before H. pylori G27 infection; anti-c-Met immunoprecipitation, Western blot
[3] = target: tyrosine kinase c-Met receptor (mouse) (mouse (endogenous in mFGOs)) (UniProt P16056); test: co-IP; lysates (M-PER) of mFGOs infected with H. pylori G27 for 24 h; anti-c-Met antibody 1:50 overnight at 4 C, Protein A/G Plus agarose; Western blot for TyrP, c-Met, CagA, CD44 and HGF
[4] = target: tyrosine kinase c-Met receptor (mouse) (mouse (endogenous in mFGOs)) (UniProt P16056); test: co-IP; lysates of mFGOs derived from CD44-deficient mice, H. pylori G27 infected for 24 h; anti-c-Met immunoprecipitation, Western blot for TyrP, c-Met, CagA, CD44 and HGF

Row | Substance | binding [1] | binding [2] | binding [3] | binding [4]
1 | CD44 (human) (from UniProt P16070 21-742) (receptor) | binds |  |  | 
2 | CagA of Helicobacter pylori strain G27 (from UniProt B5Z6S0 1-1230) | binds | binds | binds | binds
